According to PubChem BioAssay AID445 (National Center for Advancing Translational Sciences (NCATS), 2006):
Some of the results follow. Shown are side measurements of this screen, not its main read-out; they come without a call. Compounds called inactive in the main read-out are mostly missing here. Words in brackets tell the shape of the fitted curve; partial curves, single points and poor fits give uncertain potencies.

Assay: IkB Signaling
Conditions: ABC-DLBCL IkBa-CBG/CBR dual luciferase ratio (green luciferase fused to IkBa over red control in OCI-Ly3 lymphoma cells), 4 h; measured here: control luc red channel unless noted
In short: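 In this assay, an IκBα–CBG68 fusion accumulates when IKK-driven degradation is blocked; native CBR normalizes for cell number. OCI-Ly3 cells were treated 4 h with compound and doxycycline, then green and red light read after Chroma-Glo addition.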

SMILES	AC50
O=C(NCC1CCN(Cc2cccc(Cl)c2)CC1)Nc1ccc(F)c(Cl)c1	15.8 µM [falling, partial curve]
O=C(COc1ccccc1F)Nc1ccc2nc(SCC(=O)N3CCOCC3)sc2c1	25.1 µM [falling, single point]
O=C(CN1CCOCC1)Nc1nc(-c2ccc3c(c2)CCN3S(=O)(=O)c2ccccc2)cs1	31.6 µM [falling, partial curve]
Cc1ccc(S(=O)(=O)Nc2cc(Cl)c3oc4c(c3c2)CCCC4)cc1	31.6 µM [falling, partial curve, poor fit]
CCOc1ccc(CNC(=O)CSc2c3c(nc4cc(Cl)ccc24)CCCC3)cc1	39.8 µM [falling, single point]
COc1ccc(C(=O)NC(c2ccccc2Cl)c2cc(Cl)c3cccnc3c2O)cc1 (configuration not stated)	31.6 µM [falling, single point]
Cc1c(C)n(Cc2ccccc2)c2ccc(C(=O)N3CCN(c4ccccc4)CC3)cc12	1.26 µM [rising, full curve, poor fit]
CCOC(=O)c1oc2c(c1C)-c1nn(Cc3cccc(Cl)c3)cc1CC2	5.01 µM [falling, partial curve]
CC(C)Oc1ccc(C(=O)N(Cc2ccc(N(C)C)cc2)Cc2ccco2)cc1	31.6 µM [falling, single point]
CCOC(=O)c1c(C)oc2nc(C)nc(NCCc3ccc(C)cc3)c12	39.8 µM [falling, single point]
COc1cc(NC(=O)CN2CCCN(Cc3cccc(F)c3)S2(=O)=O)cc(OC)c1	15.8 µM [falling, partial curve, poor fit]
Cc1cccc(NC(=O)Cn2c(=O)n(Cc3ccco3)c(=N)c3c4c(sc32)COC(C)(C)C4)c1	20 µM [falling, partial curve]
CCCc1cc(N2CCN(c3ccccc3F)CC2)n2cnnc2n1	15.8 µM [falling, partial curve]
C=CCNc1ncnc2c1cnn2-c1ccc(Cl)cc1	12.6 µM [falling, partial curve]
CC1=C(C(=O)N2CCCCC2)C(c2ccc(Cl)cc2)n2c(nc3ccccc32)N1 (configuration not stated)	25.1 µM [falling, single point]
Cc1ccc(CN2C(=O)c3ccccc3Sc3ccc(C(=O)N4CCOCC4)cc32)cc1	31.6 µM [falling, single point]
CCOc1ccc(NC(=O)CSc2oc(-c3ccco3)nc2S(=O)(=O)c2ccccc2)cc1	12.6 µM [falling, partial curve]
Cc1ccc(NC(=O)c2oc3ccc(S(=O)(=O)N(C)C4CCCCC4)cc3c2C)c(C)c1	7.94 µM [falling, full curve]
COc1ccc(-c2nc(C)c(CCNC(=O)c3ccc(C(F)(F)F)cc3)s2)cc1OC	2 µM [rising, partial curve]
O=C(NCCc1ccc(Cl)cc1)c1ccc(Nc2nc3ccccc3n3nnnc23)cc1	7.94 µM [falling, full curve]
O=C(Nc1nc2ccccc2n1CCOc1ccccc1)c1ccco1	15.8 µM [rising, partial curve] [measured here: IkB-luc green channel]

SMILES	AC50
Cc1cccc(NC(=O)C(=O)NCCCN2CCOCC2)c1	12.6 µM [falling, partial curve, poor fit]
COc1ccc(NC(=O)c2nc(SCc3ccc(F)cc3)ncc2Cl)cc1	15.8 µM [falling, partial curve]
Cc1ccccc1Nc1c(-c2ccc(N3CCOCC3)cc2)nc2cccc(C)n12	25.1 µM [falling, partial curve]
CCOc1ccccc1CNC(=O)c1ccc2nc(N3CCC(C)CC3)sc2c1	15.8 µM [falling, partial curve]
C=CCSc1nnc(NC(=O)CSc2nc(CCC)cc(=O)[nH]2)s1	12.6 µM [falling, partial curve]
Cc1ccc(-n2ncc3c(NCCc4ccc(S(N)(=O)=O)cc4)ncnc32)cc1	7.94 µM [falling, partial curve]
O=C(Nc1ccc(NC(=O)C2CC2)cn1)c1ccccc1Cl	15.8 µM [falling, partial curve]
CC1=C(c2ccc(C)cc2)S(=O)(=O)NC1=NCc1ccccc1Cl	15.8 µM [falling, partial curve]
CCN(C(=O)Cn1c(=O)oc2cc(S(=O)(=O)N3CCCCCC3)ccc21)c1cccc(C)c1	10 µM [falling, partial curve]
O=C(CCS(=O)(=O)c1ccc(Br)s1)Nc1cc(C(F)(F)F)cc(C(F)(F)F)c1	39.8 µM [falling, single point]
CCOC(=O)c1c(C)[nH]c(C(=O)NCc2ccccc2OC)c1C	12.6 µM [falling, partial curve]
Cc1cccc(C)c1Nc1c(-c2ccccn2)nc2ccc(Cl)cn12	31.6 µM [falling, single point]
COc1ccc(-c2nc(CSCC(=O)N3CCN(c4ccccc4F)CC3)c(C)o2)cc1	20 µM [falling, single point]
CC(=O)N1CCN(c2ccc(Nc3nc(C)nc4c3oc3ccccc34)cc2)CC1	25.1 µM [falling, single point]
COc1ccccc1-n1cnnc1SCC(=O)N1CCN(S(=O)(=O)c2ccccc2)CC1	0.0316 µM [falling, full curve]
O=C(NCc1ccccc1)NC1COc2ccccc2C1 (configuration not stated)	0.0316 µM [rising, full curve]
Cn1cc(S(=O)(=O)N2CCCCCC2)cc1C(=O)NCc1ccc(F)cc1	15.8 µM [falling, partial curve, poor fit]
Cc1cc(-c2ccccc2)n2nc(-c3cccc(Br)c3)cc2n1	3.98 µM [falling, full curve]
CC1CCN(C(=O)CN2c3ccc(C(C)C)cc3-c3ccccc3S2(=O)=O)CC1	20 µM [falling, partial curve, poor fit]
Cc1ccc(-c2c(C(=O)NCc3ccc(F)cc3)oc(=O)c3ccccc23)cc1	31.6 µM [falling, single point]
CC(=O)c1cccc(NC(=O)c2oc(=O)c3ccccc3c2-c2ccccc2)c1	7.94 µM [falling, single point]

In the list so far, ten have fluorine:
SMILES	AC50
O=C(NCC1CCN(Cc2cccc(Cl)c2)CC1)Nc1ccc(F)c(Cl)c1	15.8 µM [falling, partial curve]
O=C(COc1ccccc1F)Nc1ccc2nc(SCC(=O)N3CCOCC3)sc2c1	25.1 µM [falling, single point]
COc1cc(NC(=O)CN2CCCN(Cc3cccc(F)c3)S2(=O)=O)cc(OC)c1	15.8 µM [falling, partial curve, poor fit]
CCCc1cc(N2CCN(c3ccccc3F)CC2)n2cnnc2n1	15.8 µM [falling, partial curve]
COc1ccc(-c2nc(C)c(CCNC(=O)c3ccc(C(F)(F)F)cc3)s2)cc1OC	2 µM [rising, partial curve]
COc1ccc(NC(=O)c2nc(SCc3ccc(F)cc3)ncc2Cl)cc1	15.8 µM [falling, partial curve]
O=C(CCS(=O)(=O)c1ccc(Br)s1)Nc1cc(C(F)(F)F)cc(C(F)(F)F)c1	39.8 µM [falling, single point]
COc1ccc(-c2nc(CSCC(=O)N3CCN(c4ccccc4F)CC3)c(C)o2)cc1	20 µM [falling, single point]
Cn1cc(S(=O)(=O)N2CCCCCC2)cc1C(=O)NCc1ccc(F)cc1	15.8 µM [falling, partial curve, poor fit]
Cc1ccc(-c2c(C(=O)NCc3ccc(F)cc3)oc(=O)c3ccccc23)cc1	31.6 µM [falling, single point]

2 records picked at random from the list so far:
SMILES	AC50
CC1=C(c2ccc(C)cc2)S(=O)(=O)NC1=NCc1ccccc1Cl	15.8 µM [falling, partial curve]
CCOC(=O)c1c(C)[nH]c(C(=O)NCc2ccccc2OC)c1C	12.6 µM [falling, partial curve]

Continuation.

SMILES	AC50
N#Cc1ccccc1Sc1ccccc1C(=O)OCc1nnc(-c2ccccc2)o1	3.16 µM [falling, full curve, poor fit]
COc1ccc(CCCc2nnc(SCC(=O)Nc3ccc(F)cc3)o2)cc1C	20 µM [falling, partial curve]
CS(=O)(=O)N(CC(=O)NCCSCc1ccccc1)c1cc(C(F)(F)F)ccc1Cl	12.6 µM [falling, single point]
O=C(Cn1cnc2onc(-c3ccc(F)cc3)c2c1=O)Nc1cccc(C(F)(F)F)c1	25.1 µM [falling, single point]
CCOC(=O)c1nnn(CC(=O)Nc2cc(C)cc(C)c2)c1C(=O)OCC	25.1 µM [falling, partial curve]
CCOC(=O)c1ccc(NC(=O)c2nc(SC(C)C)ncc2Cl)cc1	39.8 µM [falling, single point]
C=CCn1c(SCC(O)Cn2c3ccccc3c3ccccc32)nnc1-c1ccco1 (configuration not stated)	20 µM [falling, partial curve]
CCc1ccc(NC(=O)N2c3ccccc3Sc3ccccc32)cc1	20 µM [falling, partial curve, poor fit]
CCN(Cc1ccccc1)S(=O)(=O)c1ccc2c(c1)CCCN2C(C)=O	20 µM [falling, single point]
CCC(c1nnnn1Cc1ccc2c(c1)OCO2)N1CCN(c2ccc(F)cc2)CC1 (configuration not stated)	31.6 µM [falling, single point]
C#C[C@]1(O)CC[C@H]2[C@H]3CCC4=Cc5oncc5C[C@]4(C)[C@@H]3CC[C@]21C	12.6 µM [falling, partial curve]
Cc1ccc(Cn2nnc3c(=O)[nH]c(C4CCN(S(=O)(=O)c5ccc(F)cc5)CC4)nc32)cc1	7.94 µM [falling, full curve]
O=C(NCCc1csc(-c2cccc(F)c2)n1)c1ccccc1C(F)(F)F	25.1 µM [falling, partial curve, poor fit]
CCc1nn(-c2ccccc2)c2nc(-c3ccc(O)cc3)c3cc(OC)c(OC)cc3c12	7.94 µM [falling, partial curve]
Cc1cccc(-c2nc(CN3CCCC(C(=O)NCc4ccc(Cl)cc4)C3)c(C)o2)c1 (configuration not stated)	20 µM [falling, partial curve]
O=C(NCc1ccc(F)cc1)C1CCCCN1S(=O)(=O)c1ccc(F)cc1 (configuration not stated)	39.8 µM [falling, partial curve]
Cc1cc(C)cc(NC(=O)c2oc3ccc4c(c3c2C)C(=O)CC(C)(C)O4)c1	2 µM [falling, partial curve]
N=c1n(CCN2CCCCC2)c2ccccc2n1CC(O)COc1ccccc1 (configuration not stated)	20 µM [falling, partial curve]
Cc1ccc(C)c(N2CCN(C(=O)c3ccc(Nc4nc5ccccc5n5nnnc45)cc3)CC2)c1	5.01 µM [falling, full curve]
CCOC(=O)c1cc(C)n(CC2CCC(C(=O)Nc3ccc(C)cc3)CC2)c1C (configuration not stated)	15.8 µM [falling, partial curve, poor fit]
